The subject of this assay is CD8F1 mice, subcutaneous mammary adenocarcinoma, T/C%. The assay can be described thus: NCI In Vivo Anticancer Drug Screen. Data for tumor model Mammary Adenocarcinoma CD8F1 (subcutaneous) in CD8F1. To be noted: higher T/C = larger tumour. On the procedure: The antitumor activity of compounds was measured in mice bearing transplantable tumors. Survival or tumor size were measured and the results are expressed as the measurement made in the treated group (T) divided by the measurement made in the vehicle treated control group (C). The tumor model used in this assay is Mammary Adenocarcinoma CD8F1 (subcutaneous) in CD8F1

Molecules are shown by their SMILES. The list shows only some results of the screen, not a fair sample: it is rich in T/C values a quarter to a half above the control, in often repeated tests (any T/C) and in doses without a T/C. Further doses and runs are listed elsewhere. T/C gives the treated animals as a percentage of the vehicle group. Schedule codes are those of the source, taken here to give the interval after Q, in days (D) or hours (H), and the number of doses after X. Some values lie below zero, which means that the treated tumours became smaller. Some T/C values carry the count of animals alive at the toxicity check (mostly the fifth day); without a count, all were alive then. Some doses have a count of surviving animals in place of a T/C: the source files T/C as zero there, which appears to mark a toxic dose or a test without result, not a measured value. Survivors were counted at the toxicity check, usually on the fifth day, unless a day is given; later deaths do not show. Some doses were run more than once; the results are listed from low to high.

For `CC(=O)OCC(=O)[C@@]12OC(C)(C)O[C@@H]1C[C@H]1[C@@H]3CC(C=O)=C4C=C(OCCCl)CC[C@]4(C)[C@@]3(F)[C@@H](O)C[C@@]12C`, the T/C (T/C endpoint: median tumor weight change, dose: 125.0 mg/kg/injection, schedule: Q01DX001 (ip), vehicle: Klucel (hydroxypropylcellulose) (HPC), evaluated on day 28) was 56 % of control; the T/C (T/C endpoint: median tumor weight change, dose: 125.0 mg/kg/injection, schedule: Q01DX001 (ip), vehicle: Klucel (hydroxypropylcellulose) (HPC), evaluated on day 30) is 32 % of control; the T/C (T/C endpoint: median tumor weight change, dose: 125.0 mg/kg/injection, schedule: Q01DX001 (ip), vehicle: Klucel (hydroxypropylcellulose) (HPC), evaluated on day 31) was 13 % of control [9 of 10 alive on day 31]; the T/C (T/C endpoint: median tumor weight change, dose: 125.0 mg/kg/injection, schedule: Q01DX001 (ip), vehicle: Klucel (hydroxypropylcellulose) (HPC), evaluated on day 36) was 52 % of control; the T/C (T/C endpoint: median tumor weight change, dose: 250.0 mg/kg/injection, schedule: Q01DX001 (ip), vehicle: Klucel (hydroxypropylcellulose) (HPC), evaluated on day 28) was 10 % of control; the T/C (T/C endpoint: median tumor weight change, dose: 250.0 mg/kg/injection, schedule: Q01DX001 (ip), vehicle: Klucel (hydroxypropylcellulose) (HPC), evaluated on day 30) was 16 % of control. The T/C is 6 % of control (T/C endpoint: median tumor weight change, dose: 250.0 mg/kg/injection, schedule: Q01DX001 (ip), vehicle: Klucel (hydroxypropylcellulose) (HPC), evaluated on day 31); 47 % of control (T/C endpoint: median tumor weight change, dose: 250.0 mg/kg/injection, schedule: Q01DX001 (ip), vehicle: Klucel (hydroxypropylcellulose) (HPC), evaluated on day 36); -8 % of control (T/C endpoint: median tumor weight change, dose: 500.0 mg/kg/injection, schedule: Q01DX001 (ip), vehicle: Klucel (hydroxypropylcellulose) (HPC), evaluated on day 28); 2 % of control (T/C endpoint: median tumor weight change, dose: 500.0 mg/kg/injection, schedule: Q01DX001 (ip), vehicle: Klucel (hydroxypropylcellulose) (HPC), evaluated on day 30); -27 % of control [9 of 10 alive on day 31] (T/C endpoint: median tumor weight change, dose: 500.0 mg/kg/injection, schedule: Q01DX001 (ip), vehicle: Klucel (hydroxypropylcellulose) (HPC), evaluated on day 31); 25 % of control (T/C endpoint: median tumor weight change, dose: 500.0 mg/kg/injection, schedule: Q01DX001 (ip), vehicle: Klucel (hydroxypropylcellulose) (HPC), evaluated on day 36). The T/C (T/C endpoint: median tumor weight change, dose: 1000.0 mg/kg/injection, schedule: Q01DX001 (ip), vehicle: Klucel (hydroxypropylcellulose) (HPC), evaluated on day 28) is -8 % of control; the T/C (T/C endpoint: median tumor weight change, dose: 1000.0 mg/kg/injection, schedule: Q01DX001 (ip), vehicle: Klucel (hydroxypropylcellulose) (HPC), evaluated on day 30) is -30 % of control; the T/C (T/C endpoint: median tumor weight change, dose: 1000.0 mg/kg/injection, schedule: Q01DX001 (ip), vehicle: Klucel (hydroxypropylcellulose) (HPC), evaluated on day 31) is -10 % of control [8 of 10 alive on day 31]; the T/C (T/C endpoint: median tumor weight change, dose: 1000.0 mg/kg/injection, schedule: Q01DX001 (ip), vehicle: Klucel (hydroxypropylcellulose) (HPC), evaluated on day 36) is 15 % of control.
In the case of `BrC[P+](CBr)(CBr)CBr`, the T/C by setting is: (T/C endpoint: median tumor weight change, dose: 62.5 mg/kg/injection, schedule: Q01DX001 (ip), vehicle: saline with Tween-80, evaluated on day 28) 138 % of control; (T/C endpoint: median tumor weight change, dose: 500.0 mg/kg/injection, schedule: Q01DX001 (ip), vehicle: saline with Tween-80, evaluated on day 28) 135 % of control. Also, the survivor count (T/C endpoint: median tumor weight change, dose: 1000.0 mg/kg/injection, schedule: Q01DX001 (ip), vehicle: saline with Tween-80) is recorded as 0 of 10 on day 28.
As for `C[CH2][Ge]1([CH2]C)[CH2]CC2(CCN(CCCN(C)C)C2)C[CH2]1`, the T/C (T/C endpoint: median tumor weight (est.), dose: 16.0 mg/kg/injection, schedule: Q07DX005 (ip), vehicle: saline, evaluated on day 30) was 142 % of control. Also, the survivor count (T/C endpoint: median tumor weight (est.), dose: 128.0 mg/kg/injection, schedule: Q07DX005 (ip), vehicle: saline) is 1 of 10 on day 30 and 5 of 10 on day 30; the survivor count (T/C endpoint: median tumor weight (est.), dose: 256.0 mg/kg/injection, schedule: Q07DX005 (ip), vehicle: saline) was 0 of 10 on day 30.
With `[CH3][Sn]([CH3])([Cl])[S]CCN`, the T/C (T/C endpoint: median tumor weight change, dose: 25.0 mg/kg/injection, schedule: Q01DX001 (ip), vehicle: saline, evaluated on day 33) is 126 % of control and the T/C (T/C endpoint: median tumor weight change, dose: 50.0 mg/kg/injection, schedule: Q01DX001 (ip), vehicle: saline, evaluated on day 33) is 140 % of control. The survivor count is reported as 0 of 10 on day 33 (T/C endpoint: median tumor weight change, dose: 100.0 mg/kg/injection, schedule: Q01DX001 (ip), vehicle: saline) and 0 of 10 on day 33 (T/C endpoint: median tumor weight change, dose: 200.0 mg/kg/injection, schedule: Q01DX001 (ip), vehicle: saline).
On to `CN(C)CCN1C(=O)c2cccc3cc(N)cc(c23)C1=O`, for which the T/C (T/C endpoint: median tumor weight change, dose: 10.0 mg/kg/injection, schedule: Q01DX001 (ip), vehicle: saline with Tween-80, evaluated on day 29) was 139 % of control. The survivor count is on record as 5 of 10 on day 30 (T/C endpoint: median tumor weight change, dose: 80.0 mg/kg/injection, schedule: Q01DX001 (ip), vehicle: saline with Tween-80) and 0 of 10 on day 28, 0 of 10 on day 29, 2 of 10 on day 30 (T/C endpoint: median tumor weight change, dose: 160.0 mg/kg/injection, schedule: Q01DX001 (ip), vehicle: saline with Tween-80).
On to `CCCCCCOC(CN(C)C)C(Cl)(Cl)Cl` (configuration not stated), for which the survivor count by setting is: (T/C endpoint: median tumor weight change, dose: 800.0 mg/kg/injection, schedule: Q01DX001 (ip), vehicle: saline with Tween-80) 4 of 8 on day 29; (T/C endpoint: median tumor weight change, dose: 1600.0 mg/kg/injection, schedule: Q01DX001 (ip), vehicle: saline with Tween-80) 5 of 8 on day 29; (T/C endpoint: median tumor weight change, dose: 2000.0 mg/kg/injection, schedule: Q01DX001 (ip), vehicle: saline with Tween-80) 0 of 10 on day 29; (T/C endpoint: median tumor weight change, dose: 4000.0 mg/kg/injection, schedule: Q01DX001 (ip), vehicle: saline with Tween-80) 0 of 10 on day 29.
On to `O=C([CH-]C(=O)C(F)(F)F)c1ccccc1.O=C([CH-]C(=O)C(F)(F)F)c1ccccc1.O=C([CH-]C(=O)C(F)(F)F)c1ccccc1.O=C([CH-]C(=O)C(F)(F)F)c1ccccc1.[Eu+3].c1ccncc1`, for which, under “T/C endpoint: median tumor weight (est.), dose: 200.0 mg/kg/injection, schedule: Q07DX005 (ip), vehicle: Klucel (hydroxypropylcellulose) (HPC), evaluated on day 30”, the T/C is 131 % of control [9 of 10 alive].
On to `COC1C(C)OC(OC2CC(C)(O)Cc3cc4c(c(O)c32)C(=O)c2c(O)cc3c(c2C4=O)OC2OC3(C)C(O)C(N(C)C)C2O)C(OC)C1(C)OC` (configuration not stated), for which the T/C (T/C endpoint: median tumor weight (est.), dose: 1.25 mg/kg/injection, schedule: Q07DX005 (ip), vehicle: other, evaluated on day 32) is 127 % of control.
Regarding `COC(=O)[C@@H]1c2cc3c(c(O)c2[C@@H](OC)C[C@@]1(C)O)C(=O)c1c(O)cc2c(c1C3=O)OC1O[C@@]2(C)[C@H](O)[C@@H](N(C)C)[C@@H]1O`, the T/C (T/C endpoint: median tumor weight (est.), dose: 12.5 mg/kg/injection, schedule: Q07DX005 (ip), vehicle: suspension in saline, evaluated on day 30) is 127 % of control [9 of 10 alive].
In the case of `CN(C)N=Nc1cn[nH]c1C(N)=O`, the survivor count is recorded as 0 of 10 on day 30 (T/C endpoint: median tumor weight (est.), dose: 400.0 mg/kg/injection, schedule: Q07DX005 (ip), vehicle: Klucel (hydroxypropylcellulose) (HPC)) and 0 of 10 on day 30 (T/C endpoint: median tumor weight (est.), dose: 800.0 mg/kg/injection, schedule: Q07DX005 (ip), vehicle: Klucel (hydroxypropylcellulose) (HPC)).
On to `O=CC(O)C(O)C(O)C(O)C(=O)O.[NH-]C1CCCCC1[NH-].[Pt+2]` (configuration not stated), for which the survivor count runs as follows: (T/C endpoint: median tumor weight (est.), dose: 25.0 mg/kg/injection, schedule: Q07DX005 (ip), vehicle: suspension in saline) 3 of 10 on day 30; (T/C endpoint: median tumor weight (est.), dose: 50.0 mg/kg/injection, schedule: Q07DX005 (ip), vehicle: suspension in saline) 0 of 10 on day 30 and 1 of 10 on day 30; (T/C endpoint: median tumor weight (est.), dose: 100.0 mg/kg/injection, schedule: Q07DX005 (ip), vehicle: suspension in saline) 0 of 10 on day 30; (T/C endpoint: median tumor weight (est.), dose: 200.0 mg/kg/injection, schedule: Q07DX005 (ip), vehicle: suspension in saline) 0 of 10 on day 30.
With `NC(CNC(=O)CBr)C(=O)O` (configuration not stated), the survivor count was 0 of 10 on day 29 (T/C endpoint: median tumor weight change, dose: 250.0 mg/kg/injection, schedule: Q01DX001 (ip), vehicle: water); 0 of 10 on day 29 (T/C endpoint: median tumor weight change, dose: 500.0 mg/kg/injection, schedule: Q01DX001 (ip), vehicle: water); 0 of 10 on day 29 (T/C endpoint: median tumor weight change, dose: 1000.0 mg/kg/injection, schedule: Q01DX001 (ip), vehicle: water).
In the case of `ClC1C(Cl)C(Cl)C(Cl)C(Cl)C1Cl` (configuration not stated), the survivor count (T/C endpoint: median tumor weight change, dose: 1000.0 mg/kg/injection, schedule: Q01DX001 (ip), vehicle: Klucel (hydroxypropylcellulose) (HPC)) is 2 of 10 on day 32.
Consider `ClCCCCCCCCCCc1ccccc1`, for which the T/C (T/C endpoint: median tumor weight (est.), dose: 50.0 mg/kg/injection, schedule: Q07DX005 (ip), vehicle: Klucel (hydroxypropylcellulose) (HPC), evaluated on day 30) was 133 % of control [9 of 10 alive].

These data come from PubChem BioAssay AID220 (DTP/NCI, 2004).
